Experimental data published in publication PMC3458735, “Design of a novel tryptophan-rich membrane-active antimicrobial peptide from the membrane-proximal region of the HIV glycoprotein, gp41” (Beilstein Journal of Organic Chemistry, 2012).

Tests used:
[1] = Differential scanning calorimetry with DPPC; conditions: for effect on the phase transitions of DPPC lipids (in words): peptide:lipid molar ratio 1:10, 0.5 mg/mL lipid, 20 mM phosphate, 130 mM NaCl, pH 7.4; for sharp transition of DPPC mixed with peptide: final heating scan, peptide:lipid 1:10, main transition of pure DPPC at 41 °C
[2] = Differential scanning calorimetry with DPPG; conditions: peptide:lipid 1:10; main transition of pure DPPG at 40 °C

Row | Substance | effect on the phase transitions of DPPC lipids (in words) [1] | new transition(s) of DPPG mixed with peptide [2] | sharp transition of DPPC mixed with peptide [1]
1 | KFAKKFKWFAKAAFKFFKK-NH2 [gp41w-FKA] | very little effect | 47 °C | –
2 | KWAKKWKWFAKAAWKWYKK-NH2 [gp41w-KA] | very drastic effects | 47 °C | ~ 40 °C
3 | KWARLWRWFRITRWLWYIK-NH2 [gp41w-4R] | very drastic effects | 33 °C and 36 °C | ~ 36 °C
4 | KWASLWNWFNITNWLWYIK-NH2 [gp41w] | very little effect | ~ 43 °C | –

“And” between values parts separate entries of the source, which are not always exact repeats. Equal values may be shown once. Where no end group is shown, it is not given here.
